The text below walks through data of article PMC9839843.

Chains of the proteins cited; added tags and fusions are not shown. Lines headed by an entry give the natural chain unless they say otherwise; changes in a name come on top. A line that says so, or that is headed by a name, gives the form on record, which may keep a tag or linker.
Escherichia coli-expressed GST-TRIP12 (Q14669, form named): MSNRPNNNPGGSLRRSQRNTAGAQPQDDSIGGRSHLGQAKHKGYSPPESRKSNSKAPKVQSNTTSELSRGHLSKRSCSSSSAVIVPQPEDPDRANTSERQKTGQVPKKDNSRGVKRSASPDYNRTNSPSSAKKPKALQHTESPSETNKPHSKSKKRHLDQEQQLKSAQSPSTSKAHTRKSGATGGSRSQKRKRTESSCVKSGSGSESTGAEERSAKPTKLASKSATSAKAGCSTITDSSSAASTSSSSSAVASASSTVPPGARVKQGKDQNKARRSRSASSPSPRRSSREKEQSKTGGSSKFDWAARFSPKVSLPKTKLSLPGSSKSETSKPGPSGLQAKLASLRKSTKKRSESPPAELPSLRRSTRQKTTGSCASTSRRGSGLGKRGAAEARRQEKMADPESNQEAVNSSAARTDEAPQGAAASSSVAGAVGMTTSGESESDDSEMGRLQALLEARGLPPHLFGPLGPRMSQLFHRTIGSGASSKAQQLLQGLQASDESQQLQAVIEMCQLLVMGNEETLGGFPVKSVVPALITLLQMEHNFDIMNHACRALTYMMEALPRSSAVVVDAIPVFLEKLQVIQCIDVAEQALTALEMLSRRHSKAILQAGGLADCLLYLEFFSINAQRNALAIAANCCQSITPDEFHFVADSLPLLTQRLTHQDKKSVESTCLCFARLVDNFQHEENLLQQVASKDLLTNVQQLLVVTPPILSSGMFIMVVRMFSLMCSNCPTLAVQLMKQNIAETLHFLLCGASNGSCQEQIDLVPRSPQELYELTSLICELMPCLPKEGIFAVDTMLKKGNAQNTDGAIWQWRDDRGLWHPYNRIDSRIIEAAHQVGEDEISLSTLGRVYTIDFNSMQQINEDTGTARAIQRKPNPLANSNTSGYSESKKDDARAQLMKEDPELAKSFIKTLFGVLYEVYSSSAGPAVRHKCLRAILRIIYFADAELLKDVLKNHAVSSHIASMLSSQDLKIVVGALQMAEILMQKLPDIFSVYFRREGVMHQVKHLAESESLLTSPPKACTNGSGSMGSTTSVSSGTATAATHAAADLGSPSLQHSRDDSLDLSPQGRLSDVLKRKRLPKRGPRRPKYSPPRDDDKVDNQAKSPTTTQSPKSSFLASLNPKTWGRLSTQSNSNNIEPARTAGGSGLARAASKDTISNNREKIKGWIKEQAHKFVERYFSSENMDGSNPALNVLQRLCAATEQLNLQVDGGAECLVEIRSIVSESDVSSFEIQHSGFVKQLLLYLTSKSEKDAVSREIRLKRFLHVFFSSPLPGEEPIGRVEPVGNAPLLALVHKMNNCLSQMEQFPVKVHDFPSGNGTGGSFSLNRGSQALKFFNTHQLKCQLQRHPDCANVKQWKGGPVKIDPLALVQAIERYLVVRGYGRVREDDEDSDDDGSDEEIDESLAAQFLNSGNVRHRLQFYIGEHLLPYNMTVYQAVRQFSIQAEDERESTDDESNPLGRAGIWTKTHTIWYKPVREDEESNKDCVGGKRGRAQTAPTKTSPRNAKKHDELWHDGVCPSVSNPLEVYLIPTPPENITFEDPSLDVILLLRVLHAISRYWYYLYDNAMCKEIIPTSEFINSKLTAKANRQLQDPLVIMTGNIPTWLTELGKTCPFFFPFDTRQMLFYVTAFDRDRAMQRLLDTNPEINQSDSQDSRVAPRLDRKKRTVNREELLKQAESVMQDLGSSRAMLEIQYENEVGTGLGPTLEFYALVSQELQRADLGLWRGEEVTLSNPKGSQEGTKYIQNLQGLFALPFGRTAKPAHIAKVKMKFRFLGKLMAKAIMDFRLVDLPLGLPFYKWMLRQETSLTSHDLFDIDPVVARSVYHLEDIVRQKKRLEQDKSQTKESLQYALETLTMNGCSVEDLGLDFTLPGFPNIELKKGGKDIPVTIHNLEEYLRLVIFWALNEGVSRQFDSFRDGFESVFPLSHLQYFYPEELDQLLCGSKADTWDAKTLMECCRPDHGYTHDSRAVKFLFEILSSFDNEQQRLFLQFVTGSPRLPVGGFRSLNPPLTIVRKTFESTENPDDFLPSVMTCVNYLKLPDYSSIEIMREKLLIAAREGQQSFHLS
UniProt P01106: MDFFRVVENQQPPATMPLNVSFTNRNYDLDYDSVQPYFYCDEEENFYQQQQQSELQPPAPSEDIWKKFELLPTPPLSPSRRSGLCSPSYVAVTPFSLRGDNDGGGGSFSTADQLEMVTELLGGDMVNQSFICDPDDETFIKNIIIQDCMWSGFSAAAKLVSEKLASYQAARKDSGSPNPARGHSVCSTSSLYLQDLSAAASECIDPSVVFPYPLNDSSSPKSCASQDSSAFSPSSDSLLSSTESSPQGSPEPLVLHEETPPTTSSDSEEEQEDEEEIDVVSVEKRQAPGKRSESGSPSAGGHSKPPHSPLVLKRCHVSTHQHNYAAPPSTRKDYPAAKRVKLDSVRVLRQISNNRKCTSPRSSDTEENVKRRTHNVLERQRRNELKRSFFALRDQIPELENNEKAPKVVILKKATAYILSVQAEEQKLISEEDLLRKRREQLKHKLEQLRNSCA
UniProt Q12962: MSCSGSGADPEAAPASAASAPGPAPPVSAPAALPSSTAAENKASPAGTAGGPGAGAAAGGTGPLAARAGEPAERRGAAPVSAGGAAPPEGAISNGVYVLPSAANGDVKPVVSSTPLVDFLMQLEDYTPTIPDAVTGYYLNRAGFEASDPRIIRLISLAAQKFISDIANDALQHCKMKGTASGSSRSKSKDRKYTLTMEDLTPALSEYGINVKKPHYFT

The target in assay [1] is Escherichia coli-expressed GST-TRIP12 (human) (UniProt Q14669). Nature of the assay: pull-down; GST pulldown assay in vitro; Escherichia coli-expressed GST-TRIP12 as bait (told for Figure 8D).
For assay [2], the target named is GFP-labelled TRIP12 (human) (UniProt Q14669). Nature of the assay: co-IP; MCF7 cells transfected with tagged constructs; lysates incubated overnight at 4°C with antibodies and Protein A/G beads, then immunoblot; for Figures 7A,B and 8A,B cells were treated with Z363 (7.5 μg/ml) for 24 h.
Assay [3] addresses endogenous MYC (human (endogenous in MCF7)) (UniProt P01106). Nature of the assay: co-IP; endogenous proteins in MCF7 cell lysates; immunoprecipitation with IgG, anti-MYC, anti-TAF10 or anti-TRIP12 antibodies, then Western blotting. (In general: Immunoblotting shows a protein as a band on a membrane.)

No constants are given. Whether binding was seen depends on the method and setting. In cells and extracts the contact can be indirect. Some entries that bind do so weakly or less than the wild type.

As for “Flag-labelled TAF10 (from UniProt Q12962 1-218)”, the binding entry in assay [1] and in assay [2] was “binds” throughout.

Regarding “MYC (GST pulldown assay in vitro) (from UniProt P01106 1-454)”, the binding entry in assay [1] was “binds”. In the case of “endogenous TAF10 (from UniProt Q12962 1-218)”, the binding entry in assay [3] was “binds”.
